What all share (assay): EMSA
A general note: In EMSA bound probe runs differently from free probe, usually more slowly.

By UniProt entry, the sequences of proteins in these tests, tags left out.
UniProt P09874, whole entry: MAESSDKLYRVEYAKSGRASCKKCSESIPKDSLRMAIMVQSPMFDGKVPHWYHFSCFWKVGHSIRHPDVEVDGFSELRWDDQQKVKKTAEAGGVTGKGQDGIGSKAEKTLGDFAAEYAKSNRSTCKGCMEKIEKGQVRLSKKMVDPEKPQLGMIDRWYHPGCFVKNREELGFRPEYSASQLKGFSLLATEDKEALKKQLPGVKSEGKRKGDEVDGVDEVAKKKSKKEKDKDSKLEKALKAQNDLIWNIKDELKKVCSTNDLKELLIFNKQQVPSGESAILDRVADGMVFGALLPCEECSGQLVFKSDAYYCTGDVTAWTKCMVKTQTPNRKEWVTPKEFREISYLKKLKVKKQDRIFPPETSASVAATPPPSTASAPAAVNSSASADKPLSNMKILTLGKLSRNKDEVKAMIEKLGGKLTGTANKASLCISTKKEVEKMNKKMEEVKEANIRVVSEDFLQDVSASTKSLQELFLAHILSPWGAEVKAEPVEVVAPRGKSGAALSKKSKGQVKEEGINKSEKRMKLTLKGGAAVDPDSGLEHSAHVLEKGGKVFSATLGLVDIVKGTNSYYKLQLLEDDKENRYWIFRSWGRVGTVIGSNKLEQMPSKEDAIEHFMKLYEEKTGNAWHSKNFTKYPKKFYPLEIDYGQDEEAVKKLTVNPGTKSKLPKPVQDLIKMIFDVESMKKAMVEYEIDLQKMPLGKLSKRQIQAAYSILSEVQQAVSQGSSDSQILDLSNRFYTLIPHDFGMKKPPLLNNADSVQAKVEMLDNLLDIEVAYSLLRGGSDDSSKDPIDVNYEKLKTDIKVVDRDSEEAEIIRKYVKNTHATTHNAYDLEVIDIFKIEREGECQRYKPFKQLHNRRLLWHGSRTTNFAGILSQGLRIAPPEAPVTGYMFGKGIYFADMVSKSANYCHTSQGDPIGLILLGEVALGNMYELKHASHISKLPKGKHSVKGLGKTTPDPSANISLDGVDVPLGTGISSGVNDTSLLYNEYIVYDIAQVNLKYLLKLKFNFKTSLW

The target of data set [1] is human serum albumin (HSA) (Homo sapiens) (UniProt P02768). The conditions noted are these: HSA EMSA: TA/TAM buffer, 1 h, native 8% PAAG at 37 C, Ku/PARP1 EMSA: 50 mM Tris-HCl pH 8.0, 20 mM NaCl, 0.25 mM EDTA, 5% glycerol, 0.025% NP-40, 37 C 10-20 min, commercial protein, letters put together from the description.
The target in a further data set is PARP1 (UniProt P09874). The conditions noted are these: 60 nM PARP1: practically no free DNA, HSA does not lower binding; triazinyl phosphoramidate with two dodecyl groups at T29*T30 of strand 1; HSA EMSA: TA/TAM buffer, 1 h, native 8% PAAG at 37 C; Ku/PARP1 EMSA: 50 mM Tris-HCl pH 8.0, 20 mM NaCl, 0.25 mM EDTA, 5% glycerol, 0.025% NP-40, 37 C 10-20 min; label: 32P; letters put together from the ….

The test system of the next data set is Ku antigen. The conditions noted are these: 30 or 60 nM Ku, 15 uM HSA does not reduce binding, HSA EMSA: TA/TAM buffer, 1 h, native 8% PAAG at 37 C, Ku/PARP1 EMSA: 50 mM Tris-HCl pH 8.0, 20 mM NaCl, 0.25 mM EDTA, 5% glycerol, 0.025% NP-40, 37 C 10-20 min, label: 32P, letters put together from the ….

For at least one entry, the source does not settle the construct or the ends of the probe. For part of these data: No signal at the amounts used counts as a negative.

The text below walks through data of PMC10747088.

On to “TCCTGACATACTTGATACTTAGACATTCTT (double strand) [TZD30/M30-FAM]”, for which the binding result in data set [1] (10 uM oligomer, complete binding at 1:1, triazinyl phosphoramidate with two dodecyl groups at T29*T30 of strand 1, label: FAM on M30 (3' by name)) is given as “binds”.
In the case of “TCCTGACATACTTGATACTTAGACATTCTT (double strand) [TZD-modified 30-mer DNA duplex]”, the binding result is given as “binds” in data set [1] (15 uM HSA, smeared bands, triazinyl phosphoramidate with two dodecyl groups at T29*T30 of strand 1, label: 32P); “binds” with PARP1; “binds” with Ku antigen (triazinyl phosphoramidate with two dodecyl groups at T29*T30 of strand 1).
For the sequence “TCCTGACATACTTGATACTTAGACATTCTT (double strand) [non-modified 30-mer DNA duplex]”, the binding result in data set [1] (15 uM HSA, label: 32P) was “no binding”; with Ku antigen it was “binds”.
